From publication PMC4741301
Results are given in words; binding and its absence hold for the method and conditions named. For some assays here: Binding seen in cells or lysates may run through a third protein. Some results given as binding are weak or reduced against the parent protein; the word gives no strength. For some assays here: Tags and fused reporters may be left off the sequences shown.

Protein sequences, listed by entry. Tags and fused reporters are not part of them.
UniProt Q9Y2L5: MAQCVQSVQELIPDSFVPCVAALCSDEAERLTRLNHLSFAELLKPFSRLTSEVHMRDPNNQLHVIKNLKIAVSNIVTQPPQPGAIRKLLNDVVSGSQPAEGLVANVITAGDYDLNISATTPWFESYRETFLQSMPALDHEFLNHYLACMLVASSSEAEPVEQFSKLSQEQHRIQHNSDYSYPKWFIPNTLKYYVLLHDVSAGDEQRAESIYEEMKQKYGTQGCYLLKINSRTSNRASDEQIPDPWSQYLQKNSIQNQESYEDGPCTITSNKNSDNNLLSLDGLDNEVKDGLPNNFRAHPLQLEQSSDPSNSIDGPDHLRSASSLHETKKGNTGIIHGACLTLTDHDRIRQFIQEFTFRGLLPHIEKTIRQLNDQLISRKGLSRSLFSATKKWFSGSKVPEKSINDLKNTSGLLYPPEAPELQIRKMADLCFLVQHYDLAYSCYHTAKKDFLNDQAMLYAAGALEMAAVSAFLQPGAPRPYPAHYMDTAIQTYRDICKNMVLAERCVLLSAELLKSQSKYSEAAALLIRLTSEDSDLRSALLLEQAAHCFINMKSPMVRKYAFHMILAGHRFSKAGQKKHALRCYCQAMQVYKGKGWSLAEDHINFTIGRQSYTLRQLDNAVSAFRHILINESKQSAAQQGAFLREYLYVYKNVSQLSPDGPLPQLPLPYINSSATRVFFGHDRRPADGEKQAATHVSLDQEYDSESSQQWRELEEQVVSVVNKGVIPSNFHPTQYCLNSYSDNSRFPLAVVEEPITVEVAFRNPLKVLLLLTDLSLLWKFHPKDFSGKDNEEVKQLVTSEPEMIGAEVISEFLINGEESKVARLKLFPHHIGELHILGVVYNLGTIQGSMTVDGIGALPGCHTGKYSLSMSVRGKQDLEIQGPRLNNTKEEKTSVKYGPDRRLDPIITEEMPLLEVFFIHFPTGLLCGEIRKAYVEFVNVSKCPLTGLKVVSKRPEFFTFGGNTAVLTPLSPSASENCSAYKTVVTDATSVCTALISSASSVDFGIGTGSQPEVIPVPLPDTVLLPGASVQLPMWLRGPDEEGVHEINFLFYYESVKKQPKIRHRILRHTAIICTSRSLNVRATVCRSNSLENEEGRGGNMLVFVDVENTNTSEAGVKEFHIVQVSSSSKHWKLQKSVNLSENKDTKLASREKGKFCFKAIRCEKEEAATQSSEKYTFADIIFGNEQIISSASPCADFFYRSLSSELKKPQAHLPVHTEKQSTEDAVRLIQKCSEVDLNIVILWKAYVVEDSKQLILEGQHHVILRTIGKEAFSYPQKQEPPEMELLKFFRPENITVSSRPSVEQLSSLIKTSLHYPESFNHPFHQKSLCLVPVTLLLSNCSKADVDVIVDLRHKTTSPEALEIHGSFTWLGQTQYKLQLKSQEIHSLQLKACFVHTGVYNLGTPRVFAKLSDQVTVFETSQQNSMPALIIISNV
UniProt Q8WVT3: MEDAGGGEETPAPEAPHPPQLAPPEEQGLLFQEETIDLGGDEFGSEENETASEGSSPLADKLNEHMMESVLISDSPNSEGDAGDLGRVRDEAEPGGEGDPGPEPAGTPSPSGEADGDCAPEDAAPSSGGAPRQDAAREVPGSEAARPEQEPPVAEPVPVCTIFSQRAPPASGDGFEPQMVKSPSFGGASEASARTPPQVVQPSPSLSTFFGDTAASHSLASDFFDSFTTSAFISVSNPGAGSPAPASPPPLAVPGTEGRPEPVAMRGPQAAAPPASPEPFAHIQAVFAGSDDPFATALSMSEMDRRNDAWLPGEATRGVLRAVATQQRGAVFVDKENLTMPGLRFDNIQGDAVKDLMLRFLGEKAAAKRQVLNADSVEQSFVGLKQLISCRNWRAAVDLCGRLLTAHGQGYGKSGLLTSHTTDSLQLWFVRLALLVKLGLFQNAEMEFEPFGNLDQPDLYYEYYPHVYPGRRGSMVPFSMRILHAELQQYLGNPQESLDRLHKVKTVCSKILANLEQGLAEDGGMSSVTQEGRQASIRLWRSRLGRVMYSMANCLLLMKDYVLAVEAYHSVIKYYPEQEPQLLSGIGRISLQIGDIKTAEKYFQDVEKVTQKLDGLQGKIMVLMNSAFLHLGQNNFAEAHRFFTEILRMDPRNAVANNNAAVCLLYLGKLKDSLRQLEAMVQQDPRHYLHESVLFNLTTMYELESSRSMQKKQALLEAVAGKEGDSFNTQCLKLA
UniProt Q9Y296: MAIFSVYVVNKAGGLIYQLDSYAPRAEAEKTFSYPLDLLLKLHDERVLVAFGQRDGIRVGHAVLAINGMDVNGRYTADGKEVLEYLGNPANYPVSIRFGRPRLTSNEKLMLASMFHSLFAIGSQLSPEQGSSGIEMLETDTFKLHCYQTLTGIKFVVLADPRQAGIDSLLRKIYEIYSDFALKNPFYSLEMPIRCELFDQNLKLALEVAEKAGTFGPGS
UniProt Q9H0U4: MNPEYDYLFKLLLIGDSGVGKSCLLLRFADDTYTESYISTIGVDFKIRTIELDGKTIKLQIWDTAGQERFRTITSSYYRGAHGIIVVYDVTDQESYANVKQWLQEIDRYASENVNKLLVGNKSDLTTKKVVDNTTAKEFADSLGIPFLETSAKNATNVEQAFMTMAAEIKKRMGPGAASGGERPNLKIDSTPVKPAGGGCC

How the values were obtained:
[1] = biological target: TRAPPC8 (human (endogenous in HEK293A)) (UniProt Q9Y2L5); test: SEC; size exclusion chromatography of endogenous proteins, fractions immunoblotted; complex of approximately 600 kDa
[2] = biological target: TRAPPC12/TTC15 (human (endogenous in HEK293A)) (UniProt Q8WVT3); test: as above
[3] = biological target: TRAPPC12/TTC15 (human (endogenous in HEK293A)) (UniProt Q8WVT3); test: co-IP; HEK293A cells lysed in 400 µl TNTE; IP with mouse anti‐TRAPPC12/TTC15 or mouse anti‐GFP (control) bound to protein G‐Sepharose; immunoblot for TRAPPC8 and TRAPPC12
[4] = biological target: T1, GFP‐Golgin‐84 (UniProt Q8TBA6); test: co-IP; GFP‐Trap IP from lysates of HEK293A cells expressing GFP‐Golgin‐84, with myc‐TBC1D14 or empty vector, or with RISC‐free, TBC1D14, TRAPPC8 or RAB1B siRNA; immunoblot for RAB1B
T1 sequence: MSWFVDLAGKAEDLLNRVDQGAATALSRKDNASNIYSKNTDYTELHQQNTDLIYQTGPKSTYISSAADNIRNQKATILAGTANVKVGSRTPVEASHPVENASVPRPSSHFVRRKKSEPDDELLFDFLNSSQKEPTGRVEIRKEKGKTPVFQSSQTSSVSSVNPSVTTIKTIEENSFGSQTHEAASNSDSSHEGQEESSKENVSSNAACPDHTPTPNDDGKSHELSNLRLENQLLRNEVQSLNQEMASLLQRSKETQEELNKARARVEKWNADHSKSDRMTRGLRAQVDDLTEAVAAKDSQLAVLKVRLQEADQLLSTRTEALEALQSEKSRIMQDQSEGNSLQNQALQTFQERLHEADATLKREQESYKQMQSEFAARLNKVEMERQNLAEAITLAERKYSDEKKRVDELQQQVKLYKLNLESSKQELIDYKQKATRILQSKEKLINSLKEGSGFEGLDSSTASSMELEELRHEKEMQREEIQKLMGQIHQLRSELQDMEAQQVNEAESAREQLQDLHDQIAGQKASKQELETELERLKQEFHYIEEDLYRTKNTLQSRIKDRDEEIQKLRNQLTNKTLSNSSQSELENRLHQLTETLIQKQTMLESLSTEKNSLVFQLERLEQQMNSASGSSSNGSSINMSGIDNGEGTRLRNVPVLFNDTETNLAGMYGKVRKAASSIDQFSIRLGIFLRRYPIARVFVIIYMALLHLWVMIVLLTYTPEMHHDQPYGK

| binding [1] | binding [2] | binding [3] | binding [4] | Substance |
| --- | --- | --- | --- | --- |
| binds | binds |  |  | TRAPPC4 (from UniProt Q9Y296 1-219) |
|  | binds | binds |  | TRAPPC8 (from UniProt Q9Y2L5 1-1435) |
|  |  |  | binds | endogenous RAB1B (from UniProt Q9H0U4 1-201) |
